This passage reports binding results from paper PMC10127577.

The target in this test is CDTb protoxin (proCDTb), CDTb residues 43 to 876 (Clostridioides difficile) (UniProt O32739). As to the kind of experiment: SEC; CDTb oligomerization assay: 500 μg proCDTb at 1 mg/mL, untreated or with trypsin 1:20 (wt/wt) at 37°C for 20 min, with buffer or 2-fold molar excess of Fab; Superdex 200 Increase 10/300 GL in 20 mM Tris pH 8, 100 mM NaCl, 6 mM CaCl2; both purified. For orientation: Size exclusion chromatography separates by hydrodynamic size, large species first.

Results are given in words; binding and its absence hold for the method and conditions named.

As to “CDTb protoxin (proCDTb), CDTb residues 43 to 876 (from UniProt O32739 43-876)”, the binding result is listed as “no binding”.
